Laboratory results from patent US20170100458A1.
No constants are given. Whether binding was seen depends on the method and setting. In cells and extracts the contact can be indirect. Some binding calls cover weakened binding; strength is not graded here. Sequences can lack the tags named with a protein.

The chains behind the UniProt entries cited, without tags or fusion partners. Residues count along the entry.
UniProt P09405, residues 2-707: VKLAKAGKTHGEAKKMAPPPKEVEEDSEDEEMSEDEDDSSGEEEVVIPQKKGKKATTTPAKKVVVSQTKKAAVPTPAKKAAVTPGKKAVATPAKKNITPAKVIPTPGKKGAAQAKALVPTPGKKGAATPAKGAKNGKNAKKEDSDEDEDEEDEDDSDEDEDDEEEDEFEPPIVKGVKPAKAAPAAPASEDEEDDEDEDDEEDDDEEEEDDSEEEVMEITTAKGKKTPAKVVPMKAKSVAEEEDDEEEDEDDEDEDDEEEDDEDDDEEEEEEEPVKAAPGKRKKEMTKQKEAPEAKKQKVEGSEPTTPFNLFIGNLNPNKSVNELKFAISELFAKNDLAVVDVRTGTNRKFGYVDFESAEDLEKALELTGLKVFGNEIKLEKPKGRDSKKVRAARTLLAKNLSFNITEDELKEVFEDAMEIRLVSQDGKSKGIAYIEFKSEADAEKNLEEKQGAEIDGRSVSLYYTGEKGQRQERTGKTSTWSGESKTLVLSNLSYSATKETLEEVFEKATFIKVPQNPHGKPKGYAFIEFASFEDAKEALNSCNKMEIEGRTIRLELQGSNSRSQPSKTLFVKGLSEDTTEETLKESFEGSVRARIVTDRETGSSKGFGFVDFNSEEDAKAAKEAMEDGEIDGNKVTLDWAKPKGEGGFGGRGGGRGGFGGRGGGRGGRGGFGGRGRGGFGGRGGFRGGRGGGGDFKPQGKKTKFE

Molecular target: Nucleolin (endogenous, MDPC-23 cells) (mouse) (UniProt P09405)
Test: co-immunoprecipitation from MDPC-23 cells transfected with flag-tagged CPNE7, western blot with anti-Nucleolin; immunofluorescence co-localization

- binding: binds
B1: flag-tagged CPNE7 (exogenous, DDK (Flag)-tagged CPNE7, NM_153636) (protein, human, UniProt Q9UBL6-2 1-558, looked up, not shown: small tags and cut ends)
chain: MSAGSERGAAATPGGLPAPCASKVELRLSCRHLLDRDPLTKSDPSVALLQQAQGQWVQVGRTEVVRSSLHPVFSKVFTVDYYFEEVQRLRFEVYDTHGPSGFSCQEDDFLGGMECTLGQIVAQKKVTRPLLLKFGRNAGKSTITVIAEDISGNNGYVELSFRARKLDDKDLFSKSDPFLELYRVNDDQGLQLVYRTEVVKNNLNPVWEAFKVSLSSLCSCEETRPLKCLVWDYDSRGKHDFIGEFSTTFEEMQKAFEEGQAQWDCVNPKYKQKRRSYKNSGVVVLADLKFHRVYSFLDYIMGGCQIHFTVAIDFTASNGDPRNSCSLHYINPYQPNEYLKALVSVGEICQDYDSDKRFSALGFGARIPPKYEVSHDFAINFNPEDDECEGIQGVVEAYQNCLPRVQLYGPTNVAPIISKVARVAAAEESTGKASQYYILLILTDGVVTDMADTREAIVRASRLPMSIIIVGVGNADFTDMQVLDGDDGVLRSPRGEPALRDIVQFVPFRELKNASPAALAKCVLAEVPKQVVEYYSHRGLPPRSLGVPAGEASPGCTP
